Results deposited as PubChem BioAssay AID686938 (Drosophila RNAi Screening Center, 2013).
Purpose: 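Looking for CRAC channel components and the factors controlling them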 (primary screen). System: Drosophila S2R+ cells. Reagents: long dsRNA against Drosophila genes, about 0.25 µg dsRNA per well, roughly 10,000 cells. Time to read-out: 5 days of knock-down before the calcium assay. Treatment: thapsigargin (SERCA pump blocker) to empty calcium stores; entry signal taken 4 min after adding it. Read-out: 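Per-well fluo-4 fluorescence in two replicates, unnormalised, measured in resting cells and 4 min after store depletion by the SERCA blocker thapsigargin; ratio of the two present in few wells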. Scale: calcium entry signal: higher = stronger calcium signal after store depletion; entry to resting ratio: higher = more calcium entry relative to resting level; resting calcium signal: higher = higher resting calcium signal. Hit rule: 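Hit if the duplicate-averaged plate z-score for entry over resting signal is under −3; wells with weak total dye signal (Fmax z < −2) or more than 5 off-targets removed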. Calls: active = strongly reduced calcium entry; inactive = no strong reduction.
The deposit covers about 23,000 reagents; this is a random part of those with a known target gene and a result. In the full data, 75 (0.33%) were called active. 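Raw plate signals without normalisation; calls rest on plate z-scores that were not deposited; ratio present for only 364 wells.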 Names joined by + are all predicted targets of the reagent. Reagent sequences are not shown. Not given: the dose of the treatment.

target gene,dsRNA,"calcium entry signal, replicate 1 (fluorescence units)","calcium entry signal, replicate 2 (fluorescence units)",entry to resting ratio,"resting calcium signal, replicate 1 (fluorescence units)","resting calcium signal, replicate 2 (fluorescence units)",activity call
RpL36 (GeneID 31009),DRSC18708,1.10e7,1.18e7,1.3,8.38e6,8.01e6,inactive
Jra (GeneID 36057),DRSC07447,4.00e7,3.45e7,,1.72e7,1.64e7,inactive
cyr (GeneID 31733),DRSC18017,3.63e7,4.47e7,,1.72e7,2.05e7,inactive
cyr (GeneID 31733),DRSC18018,3.34e7,4.42e7,,1.70e7,2.05e7,inactive
cyr (GeneID 31733),DRSC18021,3.04e7,4.50e7,,1.61e7,2.08e7,inactive
Ak6 (GeneID 36379),DRSC07274,3.47e7,3.56e7,,1.76e7,1.81e7,inactive
CG4730 (GeneID 43099),DRSC15633,3.52e7,6.13e7,,1.79e7,2.53e7,inactive
Adgf-C (GeneID 41680),DRSC16473,3.11e7,4.77e7,,1.58e7,6.86e7,inactive
CG30089 (GeneID 36736),DRSC06126,3.08e7,3.51e7,,1.44e7,1.79e7,inactive
CG30089 (GeneID 36736),DRSC06127,2.57e7,2.35e7,,1.81e7,1.69e7,inactive
CG30089 (GeneID 36736),DRSC06267,3.97e7,3.90e7,,1.96e7,1.75e7,inactive
CG30089 (GeneID 36736),DRSC06268,3.49e7,3.38e7,,1.88e7,1.66e7,inactive
CG30089 (GeneID 36736),DRSC21694,3.57e7,3.54e7,,2.18e7,1.76e7,inactive
caz (GeneID 32587),DRSC20317,4.17e7,6.58e7,,1.91e7,3.50e7,inactive
caz (GeneID 32587),DRSC22594,2.94e7,3.19e7,,1.57e7,1.42e7,inactive
caz (GeneID 32587),DRSC23280,5.18e7,4.25e7,,2.54e7,1.72e7,inactive
CG5805 (GeneID 42950),DRSC15878,5.40e7,4.12e7,,2.44e7,1.84e7,inactive
Cpr49Af (GeneID 36352),DRSC07202,3.21e7,4.20e7,,1.70e7,2.00e7,inactive
dikar (GeneID 38747),DRSC09699,4.29e7,3.22e7,,2.70e7,1.36e7,inactive
dikar (GeneID 38747),DRSC22261,2.69e7,3.53e7,,1.46e7,1.66e7,inactive

Already shown: 6 of the entries above.
target gene,dsRNA,"calcium entry signal, replicate 1 (fluorescence units)","calcium entry signal, replicate 2 (fluorescence units)",entry to resting ratio,"resting calcium signal, replicate 1 (fluorescence units)","resting calcium signal, replicate 2 (fluorescence units)",activity call
cyr (GeneID 31733),DRSC18017,3.63e7,4.47e7,,1.72e7,2.05e7,inactive
cyr (GeneID 31733),DRSC18018,3.34e7,4.42e7,,1.70e7,2.05e7,inactive
cyr (GeneID 31733),DRSC18021,3.04e7,4.50e7,,1.61e7,2.08e7,inactive
Ak6 (GeneID 36379),DRSC07274,3.47e7,3.56e7,,1.76e7,1.81e7,inactive
CG4730 (GeneID 43099),DRSC15633,3.52e7,6.13e7,,1.79e7,2.53e7,inactive
Adgf-C (GeneID 41680),DRSC16473,3.11e7,4.77e7,,1.58e7,6.86e7,inactive

The list goes on:
target gene,dsRNA,"calcium entry signal, replicate 1 (fluorescence units)","calcium entry signal, replicate 2 (fluorescence units)",entry to resting ratio,"resting calcium signal, replicate 1 (fluorescence units)","resting calcium signal, replicate 2 (fluorescence units)",activity call
CG11588 (GeneID 39347),DRSC09145,5.29e7,4.88e7,,2.76e7,2.35e7,inactive
CG11588 (GeneID 39347),DRSC09846,2.83e7,3.36e7,,1.42e7,1.41e7,inactive
CG5614 (GeneID 41906),DRSC15845,3.63e7,5.16e7,,1.63e7,2.40e7,inactive
Pur-alpha (GeneID 43797),DRSC17166,2.75e7,4.52e7,,1.38e7,1.86e7,inactive
Gfrl (GeneID 3346162),DRSC15196,3.77e7,4.18e7,,4.54e7,1.86e7,inactive
Gfrl (GeneID 3346162),DRSC15197,4.03e7,3.73e7,,2.07e7,1.74e7,inactive
Gfrl (GeneID 3346162),DRSC15199,4.05e7,4.14e7,,4.58e7,1.88e7,inactive
Gfrl (GeneID 3346162),DRSC15565,3.95e7,3.60e7,,2.07e7,1.65e7,inactive
Gfrl (GeneID 3346162),DRSC15719,3.49e7,4.16e7,,4.45e7,1.76e7,inactive
CG5612 (GeneID 43316),DRSC15844,1.53e7,3.31e7,,8.93e6,1.42e7,inactive
CG15741 (GeneID 32137),DRSC19707,3.49e7,4.33e7,,1.61e7,2.23e7,inactive
CG7884 (GeneID 32914),DRSC20065,5.14e7,4.97e7,,2.57e7,2.17e7,inactive
CG15385 (GeneID 33396),DRSC00399,3.62e7,4.13e7,,1.71e7,1.79e7,inactive
PH4alphaSG1 (GeneID 326112),DRSC15080,3.76e7,4.15e7,,1.90e7,1.74e7,inactive
CG18547 (GeneID 41452),DRSC15345,3.72e7,2.97e7,,1.87e7,1.55e7,inactive
Mst87F (GeneID 41693),DRSC16747,3.81e7,6.04e7,,1.87e7,6.91e7,inactive
su(w[a]) (GeneID 31054),DRSC18840,3.81e7,4.01e7,,1.88e7,1.94e7,inactive
Lrrk (GeneID 42447),DRSC15816,4.02e7,4.47e7,,4.56e7,2.24e7,inactive
Lrrk (GeneID 42447),DRSC21971,1.84e7,6.34e7,,9.65e6,2.60e7,inactive
CG12011 (GeneID 38211),DRSC08219,4.43e7,4.37e7,,2.17e7,2.09e7,inactive
Or33b (GeneID 34602),DRSC03387,3.10e7,1.77e7,,1.44e7,8.82e6,inactive
app (GeneID 39399),DRSC09159,5.16e7,5.21e7,,2.70e7,2.28e7,inactive
app (GeneID 39399),DRSC10246,3.03e7,3.61e7,,1.48e7,1.54e7,inactive
app (GeneID 39399),DRSC10526,3.06e7,4.64e7,,1.64e7,1.99e7,inactive
REPTOR (GeneID 42930),DRSC14626,5.07e7,4.13e7,,2.68e7,2.01e7,inactive
CG31551 (GeneID 318795),DRSC12159,3.46e7,4.22e7,,1.62e7,2.16e7,inactive
CG31551 (GeneID 318795),DRSC22403,2.95e7,3.18e7,,1.50e7,1.20e7,inactive
Dscam1 (GeneID 35652),DRSC05047,2.30e7,4.43e7,,1.18e7,1.96e7,inactive
Dscam1 (GeneID 35652),DRSC05048,2.84e7,4.23e7,,1.33e7,1.79e7,inactive
Dscam1 (GeneID 35652),DRSC07407,3.53e7,4.40e7,,1.71e7,1.88e7,inactive
Dscam1 (GeneID 35652),DRSC21562,3.98e7,3.67e7,,2.41e7,1.77e7,inactive
Dscam1 (GeneID 35652),DRSC22383,4.05e7,3.24e7,,2.40e7,1.65e7,inactive
Moca-cyp (GeneID 43374),DRSC15364,3.11e7,5.05e7,,1.50e7,2.22e7,inactive
CG33702 (GeneID 3771932),DRSC08986,4.24e7,4.92e7,,2.24e7,2.34e7,inactive
Spn77Bb + Spn77Bc,DRSC10689,2.21e7,4.04e7,,1.17e7,1.66e7,inactive
Spn77Bb + Spn77Bc,DRSC11793,2.21e7,3.64e7,,1.06e7,1.48e7,inactive
Ir52d (GeneID 36716),DRSC06264,3.53e7,3.30e7,,1.85e7,1.54e7,inactive
frj (GeneID 33900),DRSC03250,4.26e7,,,2.34e7,,inactive
